Where a chain is given by its changes, count along the chain named. These are yes or no findings as the source states them, for the method shown. Some entries that bind do so weakly or less than the wild type.
B1: 22Mono5JO4 (antibody, human IgG1, V domains shown)
VH: QVQLVQSGAEVKKPGSSVKVSCRASGYPFTNYWMHWVRQAPGQGLEWIGEINPSNGRTNYNEKFKSRATLTLDKLTSTAYMELSSLTSEDTALYYCARGFAYWGQGTLVTVSS
VL: EIVLTQSPGTLSLSPGERATLSCSASSSVSFMHWYQQKPGQAPRRWIYDTTKLASGIPDRFSGSGSGTDYTLTISRLEPEDFAVYYCQQWNSHPLTFGQGTTVEIK
B2: 22Mono4DN4 (antibody, human IgG1, V domains shown)
VH: ELVQSGAEVKKPGSSVKVSCKASGYPFTNYWMHWVRQAPGQGLEWIGEINPSNGRTNYNEKFKSRATLTLDKSTSTAYMELSSLRSEDTAVYYCARGFAYWGQGTLVTVSS
VL: B1 VL with G9A, I57V, D59A, R76S, T102K
B3: 22Mono3L7F (antibody, human IgG1, V domains shown)
VH: EVTLKESGPVLVKPTETLTLTCTASGYPFTNYWMHWVRQPPGKALEWIGEINPSNGRTNYNEKFKSRATLSLDKSKSQAVLTMTNMDPVDTATYYCARGFAYWGQGTLVTVSS
VL: B1 VL with G9A, D59A, R76S, T102K, V103L
B4: 22Mono5UQY (antibody, human IgG1, V domains shown)
VH: QVQLQESGPGLVKPSETLSLTCTASGYPFTNYWMHWVRQPPGKGLEWIGEINPSNGRTNYNEKFKSRATLSLDKSKNQASLNLDSVSAADTAIYYCARGFAYWGKGSTVTVSS
VL: AIQLTQSPSSLSASVGDRVTITCSASSSVSFMHWYQQKPGKAPKRWIYDTTKLASGVPSRFSGSGSGTDYTFTISSLQPEDIATYYCQQWNSHPLTFGPGTKVDIK

Protein sequences, listed by entry. Tags and fused reporters are not part of them.
UniProt Q9NZD1: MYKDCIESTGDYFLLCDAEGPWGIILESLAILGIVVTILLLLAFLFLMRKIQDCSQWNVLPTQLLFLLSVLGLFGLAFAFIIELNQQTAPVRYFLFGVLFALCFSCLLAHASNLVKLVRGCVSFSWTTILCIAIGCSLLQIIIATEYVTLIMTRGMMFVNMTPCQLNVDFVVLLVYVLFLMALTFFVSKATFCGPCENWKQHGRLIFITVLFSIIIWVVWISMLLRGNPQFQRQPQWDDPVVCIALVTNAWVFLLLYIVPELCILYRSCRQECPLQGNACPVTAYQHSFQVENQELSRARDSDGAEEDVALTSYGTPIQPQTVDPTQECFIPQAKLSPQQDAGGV

The binders below were run against Human GPRC5D protein-Flag-His tag (51.8KD) ACRO Cat:GPD-H52D3 (human) (UniProt Q9NZD1) (assay: BLI (Octet R8), recombinant GPRC5D immobilized on a chip).

binding	Binder
binds	B1
binds	B2
binds	B3
binds	B4

— EP4640708A1 (Chimagen Biosciences, Ltd, dated 2025)
